Experimental data published in publication doi:10.1101/2022.09.16.508286.
No constants are given. Whether binding was seen depends on the method and setting. For part of these data: Binding seen in cells or lysates may run through a third protein. Some entries that bind do so weakly or less than the wild type.

Columns and labels:
Details in all cases: remark: other sources report otherwise
[1] = biological target: T1, MFN2 (human (endogenous in fibroblasts)), O95140; assay: native gel or EMSA
T1 chain: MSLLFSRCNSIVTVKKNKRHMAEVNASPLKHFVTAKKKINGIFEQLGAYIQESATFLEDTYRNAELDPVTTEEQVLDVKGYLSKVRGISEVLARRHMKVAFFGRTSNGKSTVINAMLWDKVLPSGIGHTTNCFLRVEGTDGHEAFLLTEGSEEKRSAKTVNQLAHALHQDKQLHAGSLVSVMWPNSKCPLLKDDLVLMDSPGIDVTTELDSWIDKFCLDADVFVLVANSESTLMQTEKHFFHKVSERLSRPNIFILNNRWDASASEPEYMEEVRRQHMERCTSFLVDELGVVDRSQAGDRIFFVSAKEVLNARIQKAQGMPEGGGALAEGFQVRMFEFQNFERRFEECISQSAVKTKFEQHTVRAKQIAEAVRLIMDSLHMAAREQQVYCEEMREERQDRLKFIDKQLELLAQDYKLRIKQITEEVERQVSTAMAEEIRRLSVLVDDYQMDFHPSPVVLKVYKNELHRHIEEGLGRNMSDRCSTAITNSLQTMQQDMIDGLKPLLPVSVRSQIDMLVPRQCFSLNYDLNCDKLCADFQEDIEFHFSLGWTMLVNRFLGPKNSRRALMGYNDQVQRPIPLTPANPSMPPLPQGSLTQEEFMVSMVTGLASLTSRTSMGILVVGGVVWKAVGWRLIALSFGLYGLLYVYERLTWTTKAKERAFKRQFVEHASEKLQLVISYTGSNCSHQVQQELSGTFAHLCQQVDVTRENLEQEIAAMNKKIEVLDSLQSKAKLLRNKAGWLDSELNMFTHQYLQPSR

[2] = biological target: T1, MFN2 (human (endogenous in …)); assay: native gel or EMSA
[3] = biological target: T2, SLC25A46 (human (endogenous in fibroblasts)), Q96AG3; assay: co-IP
T2 chain: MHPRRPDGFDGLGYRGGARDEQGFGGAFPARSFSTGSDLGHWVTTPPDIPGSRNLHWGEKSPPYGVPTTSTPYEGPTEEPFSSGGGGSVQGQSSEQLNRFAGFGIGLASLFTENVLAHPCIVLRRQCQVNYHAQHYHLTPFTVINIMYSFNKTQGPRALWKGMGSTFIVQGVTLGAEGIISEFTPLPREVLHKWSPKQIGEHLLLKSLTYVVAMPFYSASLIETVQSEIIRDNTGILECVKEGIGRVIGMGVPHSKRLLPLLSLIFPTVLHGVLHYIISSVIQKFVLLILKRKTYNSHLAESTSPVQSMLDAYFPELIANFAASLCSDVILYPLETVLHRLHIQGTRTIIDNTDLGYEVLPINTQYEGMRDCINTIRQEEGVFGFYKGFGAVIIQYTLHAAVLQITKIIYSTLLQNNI

Measured: binding

B1: MFN2, O95140 1-757 (protein)
chain: T1 chain
binds: all assays above
